Data: PubChem BioAssay AID1671190 (National Center for Advancing Translational Sciences (NCATS), 2021)
Values joined by “and” are separate entries in the source; they are usually repeats but may differ in a detail not shown here. Equal values may be shown once. Hit rate of the full screen: of about 580,000 compounds, about 6,100 (1.1%) were called active. Inconclusive results, whose numbers are uncertain, are shown with a selection of clear calls. Calls follow the shape of the dose curve; as a rule, active = well fitted inhibition curve with a large enough effect; inconclusive = small, poorly fitted or top-dose-only effect, or another doubt; inactive = no such curve, though single readings can be large or run the other way. Where the call is inconclusive, the potency comes from a doubtful curve fit.

By UniProt entry, the sequences of proteins in these tests, tags left out.
UniProt P18054, whole entry, looked up: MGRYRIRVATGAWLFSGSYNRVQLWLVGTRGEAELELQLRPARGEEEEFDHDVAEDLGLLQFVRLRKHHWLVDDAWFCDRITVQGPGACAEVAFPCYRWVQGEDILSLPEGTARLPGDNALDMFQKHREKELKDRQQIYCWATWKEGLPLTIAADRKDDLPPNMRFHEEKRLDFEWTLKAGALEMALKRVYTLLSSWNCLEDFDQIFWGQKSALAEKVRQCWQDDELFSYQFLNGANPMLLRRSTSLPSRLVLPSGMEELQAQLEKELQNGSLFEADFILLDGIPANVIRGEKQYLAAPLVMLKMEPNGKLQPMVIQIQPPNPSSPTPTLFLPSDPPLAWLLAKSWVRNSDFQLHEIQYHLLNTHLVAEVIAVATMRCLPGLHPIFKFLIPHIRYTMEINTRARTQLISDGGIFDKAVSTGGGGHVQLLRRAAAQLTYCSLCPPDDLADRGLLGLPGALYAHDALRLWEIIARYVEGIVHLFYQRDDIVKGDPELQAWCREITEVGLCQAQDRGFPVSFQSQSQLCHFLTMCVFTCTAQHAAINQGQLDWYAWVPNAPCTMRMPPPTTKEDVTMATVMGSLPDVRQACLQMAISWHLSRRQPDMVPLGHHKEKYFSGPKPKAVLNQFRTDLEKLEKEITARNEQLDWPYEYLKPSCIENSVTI

Molecular target: Polyunsaturated fatty acid lipoxygenase ALOX12 (Homo sapiens) (UniProt P18054)
Test: Primary qHTS assay for inhibitors of human arachidonate 12S-lipoxygenase (ALOX12): Round 2
Details: purified 12hLO, xylenol orange hydroperoxide absorbance; activity change, negative = inhibition: at 108 µM (top of the series) unless noted
How it was run: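 Purified human 12hLO at 150 nM in 25 mM Hepes, 0.01% Triton X-100, pH 7.0, preincubated 15 min at room temperature with compound. Reaction started with 40 uM arachidonic acid, 30 min at room temperature. Hydroperoxide measured by Fe-xylenol orange, 573/405 nm absorbance ratio.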
% is scaled to controls: 0 for no effect and ±100 for the full control effect; potency is read from the fitted curve at half-maximal effect.

SMILES	Potency	activity change, negative = inhibition
CC1(C(=O)OCC(=O)NC(=O)NCc2ccccc2)CC1(Cl)Cl (stereo not given)	inconclusive: 112 µM [inhibitor, partial curve, poor fit]	–
Cc1cc(C)n(-c2nc(C)c(C)c(=O)n2CC(=O)Nc2cccc([N+](=O)[O-])c2)n1	inconclusive: 31.6 µM [inhibitor, partial curve]	–
CN(C)S(=O)(=O)c1ccc(C(=O)NCc2nnc(SCC(=O)NCc3ccco3)o2)cc1	inconclusive: 0.447 µM [inhibitor, full curve, poor fit]	–
Cc1cccc(NCc2nnc(-c3ccccc3)o2)c1C	–	inactive: 1.32%
COc1ccc(-c2cc(C(=O)NCCc3ccc(OC)c(OC)c3)c3c(-c4ccc(F)cc4)[nH]nc3n2)cc1	inconclusive: 112 µM [inhibitor, single point]	–
CCOC(=O)c1cccc(NC(=O)N2CC=C(c3c[nH]c4ccccc34)CC2)c1	–	inactive: -23.4%
CCOc1ccc2nc(/N=C/c3c(C)[nH]n(-c4ccc(C)cc4)c3=O)sc2c1	–	inactive: -12.9%
Cc1cccc(-c2noc([C@@H]3Cc4nc[nH]c4CN3C(=O)Nc3cccc(C#N)c3)n2)c1	inconclusive: 56.2 µM [inhibitor, single point]	–
CN(CC(=O)Nc1cc([N+](=O)[O-])ccc1Cl)Cc1ccc(Br)cc1	inconclusive: 79.4 µM [inhibitor, partial curve, poor fit]	–
COc1ccc(OC)c(NC(=O)N2CC3CCCN3c3ccccc32)c1 (stereo not given)	inconclusive: 158 µM [inhibitor, partial curve, poor fit]	–
COc1ccc(-c2ccc3c(c2)S(=O)(=O)c2cccc(C(=O)N4CCN(c5ccccn5)CC4)c2C3=O)cc1OC	–	inactive: -3.16%
O=C(COC(=O)c1cccs1)NCCCc1ccccc1	–	inactive: -0.509%
O=C(O)c1c(Cl)c(Cl)c(Cl)c(Cl)c1-c1c2cc(I)c(=O)c(I)c-2oc2c(I)c(O)c(I)cc12	active: 1.78 µM and active: 863 nM	–
COCCn1nnnc1C1CC2(CCOCC2)C(=O)N1Cc1cccc(F)c1 (stereo not given)	–	inactive: 36.8%
O=C1CCCCC(=O)[C@H](OC(=O)c2ccccc2)C[C@H](c2ccccc2)O1	–	inactive: 148%
Cc1ccc(C)c(N2CCN(C(=O)c3cc(S(=O)(=O)N4CCOCC4)cn3C)CC2)c1	–	inactive: 6.81%
Cc1nc(S/C(=C\c2ccc(-c3ccc(C(=O)O)c(Cl)c3)o2)C(=O)O)n[nH]1	inconclusive: 39.8 µM [inhibitor, single point]	–
CCOc1ccccc1OCc1nn2c(-c3ccc(C)cc3)nnc2s1	–	inactive: 14.7%
CC(C)Cc1nnc(NC(=O)c2nn(Cc3ccccc3)c(=O)c3ccccc23)s1	–	inactive: 29.8%
CCC1(c2ccc(F)cc2)NC(=O)N(CC(=O)N2c3ccccc3CC2C)C1=O (stereo not given)	inconclusive: 100 µM [inhibitor, single point]	–
Cn1cccc1C(=O)N1CCC2(CCCN(c3ccc(-c4ccccc4)cc3)C2)CC1	inconclusive: 25.1 µM [inhibitor, single point]	–
Cc1cccc(C(C)C)c1NC(=O)c1ccc2c(c1)CCN2S(C)(=O)=O	–	inactive: -25%
COc1cc(NC(=O)c2ccc3c(c2)N(C)C2CCCN2C3=O)cc(OC)c1 (stereo not given)	inconclusive: 70.8 µM [inhibitor, partial curve, poor fit]	–
N#C/C(=C\c1c(Cl)cccc1Cl)c1nc2ccccc2[nH]1	–	inactive: 0%

Entries shown so far that contain a furan ring, fused or not (2):
SMILES	Potency	activity change, negative = inhibition
CN(C)S(=O)(=O)c1ccc(C(=O)NCc2nnc(SCC(=O)NCc3ccco3)o2)cc1	inconclusive: 0.447 µM [inhibitor, full curve, poor fit]	–
Cc1nc(S/C(=C\c2ccc(-c3ccc(C(=O)O)c(Cl)c3)o2)C(=O)O)n[nH]1	inconclusive: 39.8 µM [inhibitor, single point]	–

The list goes on:

SMILES	Potency	activity change, negative = inhibition
COC(=O)Cc1cc(=O)n2[nH]cnc2n1	active: 6.31 µM	–
COc1cc(NC(=O)c2cc([N+](=O)[O-])ccc2N2CCOCC2)ccc1NC(=O)c1ccco1	inconclusive: 35.5 µM [inhibitor, partial curve, poor fit]	–
Cc1ccc(Cl)cc1NC(=O)Cn1c(=O)n(C(C)C)c(=O)c2oc3ccccc3c21	–	inconclusive: -30.4% [inhibitor]
CC(C)CSC1=NSC2=NC(=O)/C(=C\c3coc4ccccc4c3=O)C(=N)N12	active: 28.2 µM	–
CCCCSc1nnc([C@H](C)NC(=O)OC(C)(C)C)o1	–	inactive: 10.4%
COC(=O)c1ccc(-c2ccc([C@H]3[C@H]4C=CC[C@@H](C)[C@@H]4C(=O)N3Cc3ccccc3)c(F)c2)cc1	inconclusive: 89.1 µM [inhibitor, partial curve, poor fit]	–
CC1CCN(C(=O)c2cccnc2-c2nc3ccccc3s2)CC1	inconclusive: 10 µM [inhibitor, full curve, poor fit]	–
Cn1c(=O)c2c(nc(SCC(=O)O)n2Cc2cccc(C(F)(F)F)c2)n(C)c1=O	–	inactive: -6.51%
O=C(Nc1ccc2c(c1)OCCO2)c1ccc(CN2CCOCC2)cc1	inactive	–
COc1cc2ccccc2cc1C(=O)N(CCN(C)C)c1nc2c(OC)ccc(OC)c2s1	inconclusive: 35.5 µM [inhibitor, partial curve, poor fit]	–
CCOC(=O)C1=C(C)NC(=O)NC1c1ccc(OCC(=O)OC)c(OC)c1 (stereo not given)	inconclusive: 50.1 µM [inhibitor, single point]	–
FC(F)(F)c1ccc(CN2CC[C@H](c3nc4ccccc4[nH]3)C2)cc1	inconclusive: 44.7 µM [inhibitor, full curve, poor fit]	–
N#Cc1ccccc1Cn1cc(/C=N/Nc2ccc([N+](=O)[O-])cn2)c2ccccc21	–	inactive: -4.9%
COc1ccc(S(=O)(=O)N/N=C(/C)c2cccc(NC(=O)c3ccccc3Cl)c2)cc1	inconclusive: 100 µM [inhibitor, partial curve, poor fit]	–
COc1ccccc1CNC(=O)Cn1ccc2cc(Cl)ccc21	–	inactive: 1.47%
CCCCc1ccc(N2C(=O)[C@@H]3C(CC(N)=O)NC4(C(=O)Nc5ccc(F)cc54)[C@@H]3C2=O)cc1 (stereo not given in full)	inconclusive: 50.1 µM [inhibitor, partial curve, poor fit]	–
O=C(CCCOc1ccc(Cl)cc1Cl)N/N=C/c1ccco1	inconclusive: 50.1 µM [inhibitor, partial curve, poor fit]	–
COC(=O)C[C@H]1c2ccccc2S(=O)(=O)N1Cc1ccc(OC)cc1	inconclusive: 141 µM [inhibitor, partial curve, poor fit]	–
COc1cc(CN2CCC(Cc3ccccc3)CC2)cc(OC)c1OC	inconclusive: 2.82 µM [inhibitor, full curve]	–
Cc1ccc(C)c(CS(=O)(=O)Cc2nc(C)no2)c1	inconclusive: 79.4 µM [inhibitor, single point]	–
Cc1cc(NC(=O)CN2C(=O)NC3(CCCCC3)C2=O)ccc1N1CCCC1	–	inactive: -11.5%
O=C(NCCN1CCCCC1)Nc1ccc([N+](=O)[O-])cc1	inconclusive: 112 µM [inhibitor, single point]	–
Cc1ccc(-c2cc3c(N=O)c4ccccc4c-3n[nH]2)cc1	inconclusive: 50.1 µM [inhibitor, partial curve, poor fit]	–
Cc1ccc(NC2=NC(c3ccc(C)cc3)n3c(nc(C)cc3=O)N2)cc1 (stereo not given)	inconclusive: 70.8 µM [inhibitor, partial curve, poor fit]	–

Random excerpt: 2 records from the list
SMILES	Potency	activity change, negative = inhibition
Cc1ccc(-c2cc3c(N=O)c4ccccc4c-3n[nH]2)cc1	inconclusive: 50.1 µM [inhibitor, partial curve, poor fit]	–
O=C(NCCN1CCCCC1)Nc1ccc([N+](=O)[O-])cc1	inconclusive: 112 µM [inhibitor, single point]	–

Next part

SMILES	Potency	activity change, negative = inhibition
COCCCNC(=O)CCc1cc2ccccc2[nH]c1=O	inconclusive: 28.2 µM [inhibitor, partial curve, poor fit]	–
O=C(O)CCc1ccc(-c2ccccc2)n1-c1ccc(C(=O)O)cc1	inconclusive: 44.7 µM [inhibitor, partial curve, poor fit]	–
C(=N\N(c1ccccc1)c1ccccc1)/c1ccccn1	inconclusive: 50.1 µM [inhibitor, partial curve, poor fit]	–
CCCCCc1cccc(=O)o1	inconclusive: 63.1 µM [inhibitor, partial curve, poor fit]	–
C#CCNC(=O)C1CCc2nnc(-c3ccccc3OC)n21 (stereo not given)	–	inconclusive: -34% [inhibitor]
Cc1cc(N=Nc2ccc3ccccc3c2)ccc1O	inconclusive: 7.94 µM [inhibitor, full curve, poor fit]	–
Cc1cc(COc2ccc(C(=O)c3ccc(F)cc3)cc2)on1	–	inactive: -24.7%
COc1ccc(N2CCN(CCC(O)c3ccc4ccccc4c3)CC2)cc1 (stereo not given)	–	inactive: -29.6%
CC(C)(CO)NCC(O)COc1ccc2c(c1)CCC2 (stereo not given)	–	inactive: 15.8%
C=CCc1cccc(Cl)c1OCCCNC1CCCC1	inconclusive: 3.16 µM [inhibitor, full curve, poor fit]	–
c1ccc(CCN2CCNc3cc(N4CCN(c5ccccn5)CC4)ncc3C2)cc1	–	inactive: 37.9% [at 176 µM]
COc1ccc(CN2CCCC23Cc2ccccc2N(C(=O)c2ccc(Cl)cc2)C3)cc1 (stereo not given)	inconclusive: 79.4 µM [inhibitor, single point]	–
Cc1cc(=O)oc2cc(NC(=O)Cc3c(Cl)cccc3Cl)ccc12	inconclusive: 79.4 µM [inhibitor, single point]	–
Cc1cccc(NC(=O)N2CCC(CN3CCCCCC3)CC2)c1C	inconclusive: 141 µM [inhibitor, partial curve, poor fit]	–
Cc1cc(O)ccc1-c1cc(C(=O)NCc2ccc(F)cc2)[nH]n1	–	inactive: 4.27%
CC(C)(C)NC(=S)NC(=O)C12CCC3CC(CC(C3)C1)C2	active: 31.6 µM	–
COc1cccc(CNC(=O)C2CCCN(S(=O)(=O)c3ccc4c(c3)C(C)(C)C(=O)N4C)C2)c1 (stereo not given)	–	inactive: 2.16% [at 57.4 µM]
C=C1c2ccccc2NC(=O)N1c1ccc(C)cc1	–	inactive: 0%
C=CCC1(O)CC(C)N(C)CC1C (stereo not given)	–	inactive: 31.2%
FC(F)Oc1ccc(-n2cc(-c3ccccc3)[n+]3c2CCCCC3)cc1	–	inactive: -18.4%
C#CCN1CCN(CC#N)CC12CCOC(C)(C)C2 (stereo not given)	inconclusive: 35.5 µM [inhibitor, partial curve, poor fit]	–
O=C(CSCc1ccccc1Br)NNC(=S)NCc1ccco1	active: 44.7 µM	–
